# Measurements taken from PubChem BioAssay AID504834 (National Center for Advancing Translational Sciences (NCATS), 2011).
# Hit rate of the full screen: of about 320,000 compounds, about 22,000 (6.9%) were called active. The shares of active, inactive and inconclusive entries below differ from those in the screen. Calls follow the shape of the dose curve; as a rule, active = well fitted inhibition curve with a large enough effect; inconclusive = small, poorly fitted or top-dose-only effect, or another doubt; inactive = no such curve, though single readings can be large or run the other way. Potencies beside an inconclusive call are fits to weak or partial responses and may not hold up.
# Assay: Primary qHTS for delayed death inhibitors of the malarial parasite plastid, 96 hour incubation
# Settings: P. falciparum luciferase reporter growth; series mostly up to 28.7 µM
# How it was run: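 P. falciparum expressing integrated firefly luciferase grown in erythrocytes (2% hematocrit, 0.05% parasitemia final) with compounds for 96 hours at 37 C, 5% CO2. Growth inhibition read as loss of luminescence after adding luciferase detection reagent.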
# Potency is read from the fitted curve at half-maximal effect.
row,Structure (SMILES),Potency
1,CSc1sc(C(=O)O)c(C)c1C(C)=O,inactive
2,N#Cc1cn(-c2ccccc2)nc1-c1ccc2c(c1)OCCO2,inactive
3,O=C(C1CC(=O)N(c2ccccc2)C1)N1CCC(c2nc3ccccc3[nH]2)CC1 (configuration not stated),"inconclusive: 4.65 µM [inhibitor, partial curve]"
4,O=C(COc1ccc(C(=S)N2CCOCC2)cc1Cl)Nc1ccccc1Cl,inactive
5,COc1ccc2c(c1OC)C(=O)N1c3ccccc3C(=O)N(c3ccccc3F)C21 (configuration not stated),active: 11.7 µM
6,O=C(NCc1ccccn1)C1CCN(S(=O)(=O)c2cc(Cl)ccc2Cl)CC1,inactive
7,CC(=O)Nc1ccc(Oc2ccc(-c3noc(C)n3)cc2)cc1,inactive
8,O=S(=O)(c1ccc2nc(COc3ccc(Cl)cc3Cl)[nH]c2c1)N1CCOCC1,inactive
9,CC(NC(=O)c1cc(COc2c(F)cccc2F)on1)c1cnn(-c2ccccc2)c1 (configuration not stated),"inconclusive: 18.5 µM [inhibitor, partial curve, poor fit]"
10,C#CCOCCOCCOCCNc1nc(N2CCN(C(=O)[C@H]([C@@H](C)CC)n3cc([C@@H](N)CO)nn3)CC2)nc(N2CCN(C(=O)[C@H](Cc3ccc(O)cc3)n3cc([C@@H](N)C(C)CC)nn3)CC2)n1 (some centres not stated),"inconclusive: 20.8 µM [inhibitor, partial curve, poor fit]"
11,O=[N+]([O-])c1cc(S(=O)(=O)C(F)(F)F)ccc1Sc1nc2ccccc2s1,active: 9.28 µM
12,Cc1cccc(C(=O)NCCCN2CCCC2=O)c1,inactive
13,CC(=O)c1ccc(N2CCN(S(=O)(=O)c3ccc(-c4cc(C)no4)s3)CC2)cc1,"inconclusive: 18.5 µM [inhibitor, single point]"
14,CCOc1ccc(CCNC(=O)CCNC(=O)c2ccco2)cc1OCC,inactive
15,CC1=C(C(=O)OCCCCCl)C(c2cc3c(cc2Br)OCO3)NC(=O)N1 (configuration not stated),"inconclusive: 18.5 µM [inhibitor, single point]"
16,Cc1nn2c3ccccc3nc2c2ccccc12,inactive
17,O=c1c2ccccc2nc(-c2ccoc2)n1-c1ccccc1Cl,"inconclusive: 5.86 µM [inhibitor, single point]"
18,CCOc1ccc(NC(=O)CC(C)S(=O)(=O)c2ccc3c(c2)NC(=O)CO3)cc1 (configuration not stated),"inconclusive: 18.5 µM [inhibitor, single point]"
19,CC(=O)c1cnn(-c2c(Cl)cc(Cl)cc2Cl)c1C,"inconclusive: 14.7 µM [inhibitor, partial curve, poor fit]"
20,NS(=O)(=O)c1ccc(CNC(=S)NC2CCCC2)cc1,active: 13.1 µM
21,CCOC(=O)C1CCN(S(=O)(=O)c2ccc3c(c2)NC(=O)C(C)C(=O)N3)CC1 (configuration not stated),"inconclusive: 18.5 µM [inhibitor, single point]"
22,CC1CCCC(NC(=O)c2cccs2)C1C (configuration not stated),"inconclusive: 18.5 µM [inhibitor, single point]"
23,CC(=O)Nc1ccc(NC(=O)C(C)OC(=O)CCC2CCCCC2)cc1 (configuration not stated),inactive
24,CC(C)N1CCc2c(sc(NC(=O)c3nc4ccccc4s3)c2C(N)=O)C1,inactive

# Copied from the list.
# Under Potency, `CC(C)N1CCc2c(sc(NC(=O)c3nc4ccccc4s3)c2C(N)=O)C1` reads inactive
# Under Potency, `CCOC(=O)C1CCN(S(=O)(=O)c2ccc3c(c2)NC(=O)C(C)C(=O)N3)CC1` (configuration not stated) reads inconclusive: 18.5 µM [inhibitor, single point]
# Under Potency, `CC(=O)c1ccc(N2CCN(S(=O)(=O)c3ccc(-c4cc(C)no4)s3)CC2)cc1` reads inconclusive: 18.5 µM [inhibitor, single point]

# (continued)

row,Structure (SMILES),Potency
1,Cc1ccc(-c2ccc(=O)n(CC(=O)NCc3ccc(F)cc3)n2)cc1,inactive
2,COc1ccc(/C(C)=N/NC(=O)CNC(=O)C2COc3ccccc3O2)c(OC)c1 (configuration not stated),inactive
3,COc1ccccc1N1CCN(C2CCCN(C(=O)CN3CCCCC3=O)C2)CC1 (configuration not stated),inactive
4,CCOc1ccc(C(C)=O)cc1CN1C(=O)NC2(CCCCCC2)C1=O,active: 4.65 µM
5,COC(=O)c1ccc(/C=N/Nc2nc(-c3ccc(Cl)cc3Cl)cs2)cc1,inactive
6,O=c1ccn([C@@H]2O[C@H](CO)[C@@H](O)[C@H]2O)c(=O)[nH]1,inactive
7,CC(C)c1ccc(NC2CCCN(C(=O)CCn3cnnn3)C2)cc1 (configuration not stated),inactive
8,COCCn1c(Cc2ccccc2)nnc1SCC(=O)N1CCCCC1C (configuration not stated),"inconclusive: 0.0657 µM [inhibitor, full curve, poor fit]"
9,CC1(c2ccccc2)NC(=O)N(CC(=O)Nc2ccc(Cl)c(S(=O)(=O)N3CCCCC3)c2)C1=O (configuration not stated),"inconclusive: 18.5 µM [inhibitor, single point]"
10,NS(=O)(=O)c1ccc(CCNCc2ccccc2OCc2ccc(Cl)cc2)cc1,"inconclusive: 18.5 µM [inhibitor, single point]"
11,O=C(O)CCC(=O)N1N=C(c2cccs2)CC1c1ccc(Br)cc1 (configuration not stated),inactive
12,CN(C)c1ncc(S(=O)(=O)c2ccc(Cl)cc2)c(-c2ccccc2)n1,"inconclusive: 5.86 µM [inhibitor, partial curve, poor fit]"
13,Cc1ccc(-c2nc3cc(Br)cnc3nc2-c2ccc(C)cc2)cc1,active: 14.7 µM
14,Cc1cccc(-n2c(Cc3cc(=O)[nH]c(=O)[nH]3)nnc2SCC(=O)NCC2CCCO2)c1 (configuration not stated),"inconclusive: 18.5 µM [inhibitor, single point]"
15,O=c1cc(Nc2ccc3c(c2)OCO3)[nH]c(=O)n1-c1ccc(Br)cc1,inactive
16,O=C(CCN1C(=O)c2ccccc2C1=O)Nc1cccnc1,"inconclusive: 1.04 µM [inhibitor, full curve]"
17,CCOc1cc(/C=N/NS(=O)(=O)c2ccccc2)ccc1OS(=O)(=O)c1ccc(C)cc1,"inconclusive: 10.4 µM [inhibitor, single point]"
18,CN1/C(=C\C(=O)COC(=O)c2ccc(O)c(O)c2)C(C)(C)c2ccccc21,inactive
19,CCOn1c(SCC)nc2ccccc2c1=O,"inconclusive: 2.62 µM [inhibitor, single point]"
20,COc1ccc(CCC(=O)Nc2cc(S(=O)(=O)N3CCOCC3)ccc2OC(C)C)cc1,"inconclusive: 9.28 µM [inhibitor, single point]"
21,Cc1coc2cc3oc(=O)c(CC(=O)N4C[C@H]5C[C@@H](C4)c4cccc(=O)n4C5)c(C)c3cc12,"inconclusive: 18.5 µM [inhibitor, single point]"
22,COc1cc(CN2CC(=O)N(c3ccccc3Cl)C2=S)cc(OC)c1OC,inactive
23,COc1ccccc1CNC(=O)c1oc2ccccc2c1C,"inconclusive: 10.4 µM [inhibitor, partial curve, poor fit]"
